The supplement of paper PMC6078165
Values are relative to the signal before dosing, not to a vehicle control; the signal also falls without drug.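 Fibroblast labels denote human fibroblasts, mainly primary ones from uterus (C12385, HUF), lung (H6013), bone (Hs27A), adrenal (HADF) and skin (WS1), plus mammary HMF and breast cancer-associated Hs343T. Cancer cells are basal-like or mesenchymal-like triple-negative breast cancer lines. A hit is a response shift exceeding 3x replicate standard deviation. The tissue of the other fibroblasts is not given here.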

Test system: MDAMB468
Experiment: relative JC-1 red fluorescence (viability) vs pre-drug, coculture with fibroblast (fraction); higher = more viable cancer cells
Method: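 JC-1 labelled TNBC cells cocultured 1:1 (1,500 cells each) with CellTrace Violet stained primary or stromal fibroblasts in 384-well plates in FluoroBrite medium, treated with one of 42 anticancer drugs at 0.1, 1, 10 or 100 uM. JC-1 red fluorescence (mitochondrial integrity in cancer cells only) was read by plate reader every 8 h for 72 h. Values are normalised to each well's pre-drug value. The stock of one drug was tenfold lower, so its dose labels may be too high.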

CO[C@H]1C[C@@H]2CC[C@@H](C)[C@@](O)(O2)C(=O)C(=O)N2CCCC[C@H]2C(=O)O[C@H]([C@H](C)C[C@@H]2CC[C@@H](OCCO)[C@H](OC)C2)CC(=O)[C@H](C)/C=C(\C)[C@@H](O)[C@@H](OC)C(=O)[C@H](C)C[C@H](C)/C=C/C=C/C=C/1C [Everolimus]
relative JC-1 red fluorescence
Conditions	8 h	16 h	24 h	32 h	40 h	48 h	56 h	64 h	72 h
0.1 µM, coculture fibroblast: C12385	0.86012	0.7669	0.716	0.6586	0.609	0.593	0.55	0.521	0.507
0.1 µM, coculture fibroblast: H6013	0.8272	0.8166	0.786	0.781	0.765	0.785	0.777	0.789	0.742
0.1 µM, coculture fibroblast: H6019	0.8	0.7708	0.7363	0.682	0.656	0.65	0.619	0.602	0.588
0.1 µM, coculture fibroblast: H6076	0.9127	0.938	0.8806	0.854	0.8	0.78	0.749	0.738	0.762
0.1 µM, coculture fibroblast: H6231	0.818	0.891	0.872	0.858	0.807	0.79	0.752	0.723	0.718
0.1 µM, coculture fibroblast: HADF	0.902	0.849	0.815	0.836	0.792	0.794	0.756	0.76	0.747
0.1 µM, coculture fibroblast: HCFa	0.8153	0.78	0.725	0.6976	0.64	0.639	0.593	0.56	0.517
0.1 µM, coculture fibroblast: HCPF	0.857	0.916	0.857	0.846	0.789	0.766	0.708	0.7	0.682
0.1 µM, coculture fibroblast: HHSteC	0.865	0.836	0.817	0.796	0.762	0.768	0.71	0.687	0.638
0.1 µM, coculture fibroblast: HMF	0.835	0.94591	0.884	0.869	0.805	0.803	0.752	0.741	0.726
0.1 µM, coculture fibroblast: HPFa	0.9248	0.855	0.825	0.7674	0.7396	0.7533	0.7	0.693	0.633
0.1 µM, coculture fibroblast: HUF	0.8973	0.818	0.782	0.7296	0.6892	0.6646	0.6237	0.6033	0.5804
0.1 µM, coculture fibroblast: Hs5	0.839	0.938	0.86	0.842	0.792	0.759	0.718	0.685	0.706
0.1 µM, coculture fibroblast: Hs27A	0.854	0.801	0.758	0.758	0.702	0.703	0.666	0.656	0.625
0.1 µM, coculture fibroblast: Hs343T	0.88073	0.936	0.863	0.829	0.761	0.742	0.693	0.676	0.653
0.1 µM, coculture fibroblast: WS1	0.8246	0.7627	0.701	0.631	0.588	0.554	0.534	0.504	0.491
1 µM, coculture fibroblast: C12385	0.897	0.8712	0.815	0.762	0.739	0.74471	0.7209	0.7055	0.705
1 µM, coculture fibroblast: H6013	0.894	0.86	0.811	0.815	0.806	0.817	0.803	0.813	0.77
1 µM, coculture fibroblast: H6019	0.859	0.799	0.7784	0.734	0.702	0.7067	0.6669	0.652	0.641
1 µM, coculture fibroblast: H6076	0.9094	0.9271	0.901	0.925	0.876	0.878	0.861	0.854	0.792
1 µM, coculture fibroblast: H6231	0.8199	0.895	0.821	0.798	0.75	0.735	0.694	0.681	0.6825
1 µM, coculture fibroblast: HADF	0.906	0.856	0.799	0.803	0.748	0.733	0.692	0.684	0.632
1 µM, coculture fibroblast: HCFa	0.885	0.8248	0.79	0.7793	0.693	0.6727	0.6117	0.574	0.505
1 µM, coculture fibroblast: HCPF	0.893	0.894	0.902	0.893	0.828	0.808	0.767	0.752	0.746
1 µM, coculture fibroblast: HHSteC	0.919	0.866	0.822	0.79	0.7377	0.7331	0.667	0.631	0.573
1 µM, coculture fibroblast: HMF	0.85	0.965	0.881	0.8527	0.8007	0.7842	0.733	0.712	0.692
1 µM, coculture fibroblast: HPFa	0.921	0.895	0.835	0.795	0.763	0.764	0.683	0.66	0.586
1 µM, coculture fibroblast: HUF	0.873	0.793	0.75	0.7	0.664	0.648	0.619	0.606	0.584
1 µM, coculture fibroblast: Hs5	0.898	0.908	0.923	0.895	0.828	0.795	0.75	0.726	0.754
1 µM, coculture fibroblast: Hs27A	0.845	0.786	0.771	0.772	0.739	0.742	0.718	0.721	0.682
1 µM, coculture fibroblast: Hs343T	0.875	0.949	0.8801	0.8798	0.82	0.8116	0.778	0.772	0.76
1 µM, coculture fibroblast: WS1	0.865	0.8067	0.74	0.6877	0.647	0.631	0.6056	0.5789	0.5684
10 µM, coculture fibroblast: C12385	0.885	0.9035	0.883	0.851	0.809	0.80062	0.76	0.719	0.6982
10 µM, coculture fibroblast: H6013	0.8506	0.883	0.8793	0.9	0.879	0.903	0.873	0.86	0.819
10 µM, coculture fibroblast: H6019	0.954	0.844	0.845	0.861	0.833	0.985	0.938	0.931	0.928
10 µM, coculture fibroblast: H6076	0.914	0.914	0.895	0.883	0.833	0.806	0.86	0.797	0.842
10 µM, coculture fibroblast: H6231	0.807	0.8	0.9678	0.933	0.8998	0.869	0.8042	0.777	0.752
10 µM, coculture fibroblast: HADF	0.8921	0.901	0.878	0.912	0.8684	0.8806	0.84277	0.8292	0.81334
10 µM, coculture fibroblast: HCFa	0.8637	0.8517	0.8166	0.816	0.753	0.757	0.713	0.677	0.648
10 µM, coculture fibroblast: HCPF	0.839	0.937	0.917	0.929	0.873	0.852	0.801	0.784	0.781
10 µM, coculture fibroblast: HHSteC	0.859	0.8822	0.88	0.876	0.841	0.8525	0.7938	0.7754	0.7451
10 µM, coculture fibroblast: HMF	0.806	0.976	0.9372	0.936	0.878	0.865	0.809	0.799	0.784
10 µM, coculture fibroblast: HPFa	0.891	0.915	0.898	0.8698	0.8382	0.8532	0.7995	0.7896	0.727
10 µM, coculture fibroblast: HUF	0.945	0.958	0.944	0.905	0.863	0.86	0.828	0.811	0.802
10 µM, coculture fibroblast: Hs5	0.9412	0.95443	0.941	0.936	0.894	0.867	0.832	0.81	0.843
10 µM, coculture fibroblast: Hs27A	0.822	0.842	0.793	0.8158	0.76	0.776	0.746	0.739	0.717
10 µM, coculture fibroblast: Hs343T	0.875	0.867	0.9254	0.897	0.901	0.881	0.837	0.826	0.801
10 µM, coculture fibroblast: WS1	0.9	0.878	0.8468	0.82	0.787	0.764	0.744	0.723	0.708
100 µM, coculture fibroblast: C12385	0.923	0.782	0.621	0.418	0.3032	0.281	0.276	0.293	0.297
100 µM, coculture fibroblast: H6013	0.829	0.855	0.869	0.869	0.708	0.609	0.525	0.471	0.417
100 µM, coculture fibroblast: H6019	0.801	0.944	0.746	0.596	0.463	0.378	0.323	0.285	0.274
100 µM, coculture fibroblast: H6076	0.951	0.97102	0.928	0.931	0.854	0.852	0.82	0.812	0.868
100 µM, coculture fibroblast: H6231	0.7933	0.834	0.883	0.885	0.96366	0.951	0.896	0.881	0.869
100 µM, coculture fibroblast: HADF	0.774	0.881	0.788	0.839	0.696	0.596	0.508	0.522	0.49
100 µM, coculture fibroblast: HCFa	0.7707	0.891	0.801	0.813	0.8345	0.692	0.537	0.448	0.414
100 µM, coculture fibroblast: HCPF	0.876	0.968	0.908	0.906	0.854	0.833	0.784	0.766	0.753
100 µM, coculture fibroblast: HHSteC	0.762	0.835	0.902	0.8093	0.796	0.699	0.561	0.462	0.389
100 µM, coculture fibroblast: HMF	0.885	0.712	0.849	0.864	0.81	0.798	0.827	0.783	0.78549
100 µM, coculture fibroblast: HPFa	0.883	0.848	0.886	0.791	0.761	0.768	0.607	0.51	0.448
100 µM, coculture fibroblast: HUF	0.772	0.914	0.767	0.62	0.472	0.394	0.375	0.402	0.412
100 µM, coculture fibroblast: Hs5	0.89	0.84	0.791	0.671	0.637	0.564	0.618	0.512	0.627
100 µM, coculture fibroblast: Hs27A	0.924	0.849	0.737	0.743	0.69	0.626	0.547	0.511	0.453
100 µM, coculture fibroblast: Hs343T	0.807	0.81731	0.697	0.728	0.668	0.656	0.619	0.6	0.603
100 µM, coculture fibroblast: WS1	0.912	0.819	0.616	0.448	0.3305	0.29	0.291	0.305	0.318
